Laboratory results: the supplement of paper PMC10849652
Some of the results follow.

Chains of the proteins cited; added tags and fusions are not shown. Lines headed by an entry give the natural chain unless they say otherwise; changes in a name come on top.
UniProt A6NGB9: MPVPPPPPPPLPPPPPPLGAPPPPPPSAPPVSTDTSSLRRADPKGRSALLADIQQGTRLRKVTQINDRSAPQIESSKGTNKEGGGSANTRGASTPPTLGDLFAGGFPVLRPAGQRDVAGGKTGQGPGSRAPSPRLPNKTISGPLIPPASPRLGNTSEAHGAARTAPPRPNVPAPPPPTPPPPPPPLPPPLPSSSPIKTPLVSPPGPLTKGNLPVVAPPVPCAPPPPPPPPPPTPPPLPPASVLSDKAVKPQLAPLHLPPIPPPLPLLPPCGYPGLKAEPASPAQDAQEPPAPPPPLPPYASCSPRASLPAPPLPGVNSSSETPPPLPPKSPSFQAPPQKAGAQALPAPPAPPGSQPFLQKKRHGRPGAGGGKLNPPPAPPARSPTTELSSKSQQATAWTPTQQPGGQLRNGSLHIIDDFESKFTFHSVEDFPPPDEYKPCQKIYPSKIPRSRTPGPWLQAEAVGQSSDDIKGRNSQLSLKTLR
UniProt Q9UK41: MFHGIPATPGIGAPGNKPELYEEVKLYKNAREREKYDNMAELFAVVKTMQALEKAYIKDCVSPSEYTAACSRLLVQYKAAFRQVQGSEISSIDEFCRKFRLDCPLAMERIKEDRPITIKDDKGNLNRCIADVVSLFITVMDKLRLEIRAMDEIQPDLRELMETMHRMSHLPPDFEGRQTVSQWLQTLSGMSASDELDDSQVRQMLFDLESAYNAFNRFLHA
UniProt Q9Y277: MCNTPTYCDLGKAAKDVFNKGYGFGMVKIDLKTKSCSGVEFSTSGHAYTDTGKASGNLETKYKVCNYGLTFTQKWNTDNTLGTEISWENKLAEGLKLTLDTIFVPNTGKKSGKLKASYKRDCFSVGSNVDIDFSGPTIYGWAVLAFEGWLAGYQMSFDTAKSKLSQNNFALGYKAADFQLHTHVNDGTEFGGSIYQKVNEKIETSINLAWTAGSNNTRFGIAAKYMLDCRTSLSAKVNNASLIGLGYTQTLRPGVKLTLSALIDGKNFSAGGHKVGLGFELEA
UniProt Q14135: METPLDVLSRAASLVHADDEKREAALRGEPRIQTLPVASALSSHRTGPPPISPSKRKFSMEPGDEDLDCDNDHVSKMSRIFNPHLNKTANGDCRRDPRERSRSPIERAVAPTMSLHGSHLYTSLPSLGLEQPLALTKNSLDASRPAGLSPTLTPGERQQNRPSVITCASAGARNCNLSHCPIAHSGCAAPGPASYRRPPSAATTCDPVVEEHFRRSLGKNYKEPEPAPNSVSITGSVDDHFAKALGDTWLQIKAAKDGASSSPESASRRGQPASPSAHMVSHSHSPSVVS
UniProt P45880: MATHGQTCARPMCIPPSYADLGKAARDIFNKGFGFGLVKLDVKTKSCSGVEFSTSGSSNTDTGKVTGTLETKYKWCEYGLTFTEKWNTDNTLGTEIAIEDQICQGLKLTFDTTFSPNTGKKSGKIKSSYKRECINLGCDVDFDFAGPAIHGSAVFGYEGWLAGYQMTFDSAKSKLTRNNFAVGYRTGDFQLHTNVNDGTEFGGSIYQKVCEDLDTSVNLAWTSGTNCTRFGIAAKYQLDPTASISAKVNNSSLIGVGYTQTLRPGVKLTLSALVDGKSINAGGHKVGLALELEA
UniProt O00401, whole entry, looked up: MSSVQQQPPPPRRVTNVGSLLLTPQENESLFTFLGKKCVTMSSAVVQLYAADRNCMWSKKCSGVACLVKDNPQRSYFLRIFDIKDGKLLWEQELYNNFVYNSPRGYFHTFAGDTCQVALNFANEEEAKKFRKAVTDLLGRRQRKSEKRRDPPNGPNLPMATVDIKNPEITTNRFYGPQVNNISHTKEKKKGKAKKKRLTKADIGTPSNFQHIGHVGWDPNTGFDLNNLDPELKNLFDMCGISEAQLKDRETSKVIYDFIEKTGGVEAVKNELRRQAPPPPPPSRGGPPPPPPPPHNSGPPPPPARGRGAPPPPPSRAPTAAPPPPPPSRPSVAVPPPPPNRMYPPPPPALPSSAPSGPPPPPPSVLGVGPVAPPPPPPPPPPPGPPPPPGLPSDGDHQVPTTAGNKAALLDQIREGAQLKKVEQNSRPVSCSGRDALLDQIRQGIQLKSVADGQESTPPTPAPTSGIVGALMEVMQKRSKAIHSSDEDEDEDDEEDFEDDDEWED
UniProt P30291: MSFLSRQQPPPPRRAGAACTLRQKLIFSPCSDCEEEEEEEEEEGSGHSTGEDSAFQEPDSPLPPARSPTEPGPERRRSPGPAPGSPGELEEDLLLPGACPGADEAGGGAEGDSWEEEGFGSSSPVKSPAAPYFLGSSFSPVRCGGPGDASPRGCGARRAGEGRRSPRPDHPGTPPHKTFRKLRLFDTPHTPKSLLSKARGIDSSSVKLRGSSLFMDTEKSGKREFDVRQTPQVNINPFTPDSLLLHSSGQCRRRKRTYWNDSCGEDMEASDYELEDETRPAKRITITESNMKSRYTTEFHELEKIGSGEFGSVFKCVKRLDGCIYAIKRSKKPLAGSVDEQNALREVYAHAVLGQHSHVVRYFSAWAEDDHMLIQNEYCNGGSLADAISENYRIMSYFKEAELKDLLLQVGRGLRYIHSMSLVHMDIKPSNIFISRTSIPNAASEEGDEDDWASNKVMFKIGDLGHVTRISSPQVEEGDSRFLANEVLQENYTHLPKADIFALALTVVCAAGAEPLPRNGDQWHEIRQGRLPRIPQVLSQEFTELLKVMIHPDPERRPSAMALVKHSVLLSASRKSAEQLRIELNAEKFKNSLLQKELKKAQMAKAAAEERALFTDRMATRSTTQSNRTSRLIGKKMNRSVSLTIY
UniProt Q9Y2I8: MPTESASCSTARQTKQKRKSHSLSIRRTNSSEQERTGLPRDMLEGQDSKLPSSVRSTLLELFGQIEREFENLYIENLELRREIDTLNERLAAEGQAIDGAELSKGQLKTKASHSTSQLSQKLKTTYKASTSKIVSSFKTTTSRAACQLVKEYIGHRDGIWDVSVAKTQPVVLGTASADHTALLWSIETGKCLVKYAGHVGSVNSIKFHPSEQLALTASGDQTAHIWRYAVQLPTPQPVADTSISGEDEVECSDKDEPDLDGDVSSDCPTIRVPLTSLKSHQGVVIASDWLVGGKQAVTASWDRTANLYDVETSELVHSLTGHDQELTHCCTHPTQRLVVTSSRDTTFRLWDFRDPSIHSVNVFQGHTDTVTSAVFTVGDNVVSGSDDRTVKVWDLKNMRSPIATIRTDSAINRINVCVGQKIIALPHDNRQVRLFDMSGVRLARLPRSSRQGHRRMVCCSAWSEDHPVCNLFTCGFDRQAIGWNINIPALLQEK
UniProt Q9BZH6: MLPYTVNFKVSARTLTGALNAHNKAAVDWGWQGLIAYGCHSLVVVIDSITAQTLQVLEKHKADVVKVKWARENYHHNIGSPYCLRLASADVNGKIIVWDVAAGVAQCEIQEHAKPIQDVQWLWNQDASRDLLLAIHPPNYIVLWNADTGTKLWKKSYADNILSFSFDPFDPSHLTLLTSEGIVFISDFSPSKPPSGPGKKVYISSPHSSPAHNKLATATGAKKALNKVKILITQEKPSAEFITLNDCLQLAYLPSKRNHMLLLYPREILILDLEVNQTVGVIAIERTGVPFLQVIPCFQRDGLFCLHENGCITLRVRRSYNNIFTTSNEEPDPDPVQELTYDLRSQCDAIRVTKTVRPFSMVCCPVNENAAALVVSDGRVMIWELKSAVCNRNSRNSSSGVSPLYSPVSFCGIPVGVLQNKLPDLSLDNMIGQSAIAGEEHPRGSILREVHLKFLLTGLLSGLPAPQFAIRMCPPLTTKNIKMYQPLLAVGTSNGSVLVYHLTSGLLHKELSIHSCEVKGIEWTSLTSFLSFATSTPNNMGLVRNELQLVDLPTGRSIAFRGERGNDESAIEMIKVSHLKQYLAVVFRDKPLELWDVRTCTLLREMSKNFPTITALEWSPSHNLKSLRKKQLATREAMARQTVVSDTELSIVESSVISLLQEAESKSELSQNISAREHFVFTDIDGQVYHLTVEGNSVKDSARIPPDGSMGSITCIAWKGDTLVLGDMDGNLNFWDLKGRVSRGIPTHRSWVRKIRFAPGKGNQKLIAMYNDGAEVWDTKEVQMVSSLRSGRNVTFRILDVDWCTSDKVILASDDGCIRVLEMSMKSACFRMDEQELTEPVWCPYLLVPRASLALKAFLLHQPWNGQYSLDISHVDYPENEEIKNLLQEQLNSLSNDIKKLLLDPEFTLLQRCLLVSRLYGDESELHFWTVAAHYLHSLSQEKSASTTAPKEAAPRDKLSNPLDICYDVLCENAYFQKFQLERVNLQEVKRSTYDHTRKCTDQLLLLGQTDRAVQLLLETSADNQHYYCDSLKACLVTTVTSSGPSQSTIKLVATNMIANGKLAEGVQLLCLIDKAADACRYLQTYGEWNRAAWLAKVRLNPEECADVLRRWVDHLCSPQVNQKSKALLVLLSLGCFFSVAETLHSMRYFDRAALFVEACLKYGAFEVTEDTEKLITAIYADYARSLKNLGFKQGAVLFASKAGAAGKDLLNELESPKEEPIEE
UniProt Q7Z5K2: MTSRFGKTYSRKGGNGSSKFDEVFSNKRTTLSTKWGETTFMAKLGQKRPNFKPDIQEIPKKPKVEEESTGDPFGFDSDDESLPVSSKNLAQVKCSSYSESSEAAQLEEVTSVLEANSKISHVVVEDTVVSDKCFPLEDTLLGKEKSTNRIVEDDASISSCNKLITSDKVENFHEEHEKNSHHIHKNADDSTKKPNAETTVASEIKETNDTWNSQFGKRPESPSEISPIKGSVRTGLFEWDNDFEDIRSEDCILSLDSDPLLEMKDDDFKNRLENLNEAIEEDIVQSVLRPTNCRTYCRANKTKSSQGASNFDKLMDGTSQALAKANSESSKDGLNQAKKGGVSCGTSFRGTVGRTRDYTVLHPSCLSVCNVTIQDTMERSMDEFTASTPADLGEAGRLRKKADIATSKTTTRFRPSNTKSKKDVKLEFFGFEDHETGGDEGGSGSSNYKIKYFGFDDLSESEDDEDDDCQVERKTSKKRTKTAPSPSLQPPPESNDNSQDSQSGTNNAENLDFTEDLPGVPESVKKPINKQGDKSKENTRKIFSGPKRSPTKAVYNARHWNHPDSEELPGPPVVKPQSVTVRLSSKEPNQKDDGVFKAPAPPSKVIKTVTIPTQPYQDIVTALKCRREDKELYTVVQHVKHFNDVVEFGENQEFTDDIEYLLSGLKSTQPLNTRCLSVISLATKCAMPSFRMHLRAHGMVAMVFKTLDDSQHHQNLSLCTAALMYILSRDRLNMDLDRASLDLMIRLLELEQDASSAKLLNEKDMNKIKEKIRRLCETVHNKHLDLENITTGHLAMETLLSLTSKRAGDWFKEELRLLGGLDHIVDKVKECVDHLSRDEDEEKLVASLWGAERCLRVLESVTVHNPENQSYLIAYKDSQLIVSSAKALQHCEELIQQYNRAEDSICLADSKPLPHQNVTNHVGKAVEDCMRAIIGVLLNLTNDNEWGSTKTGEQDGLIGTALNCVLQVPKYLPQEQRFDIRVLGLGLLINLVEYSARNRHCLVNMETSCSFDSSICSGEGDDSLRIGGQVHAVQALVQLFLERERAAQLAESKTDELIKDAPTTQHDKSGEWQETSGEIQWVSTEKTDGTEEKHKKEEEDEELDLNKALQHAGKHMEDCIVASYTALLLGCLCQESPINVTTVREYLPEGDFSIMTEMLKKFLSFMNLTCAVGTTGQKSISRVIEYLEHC
UniProt O75083: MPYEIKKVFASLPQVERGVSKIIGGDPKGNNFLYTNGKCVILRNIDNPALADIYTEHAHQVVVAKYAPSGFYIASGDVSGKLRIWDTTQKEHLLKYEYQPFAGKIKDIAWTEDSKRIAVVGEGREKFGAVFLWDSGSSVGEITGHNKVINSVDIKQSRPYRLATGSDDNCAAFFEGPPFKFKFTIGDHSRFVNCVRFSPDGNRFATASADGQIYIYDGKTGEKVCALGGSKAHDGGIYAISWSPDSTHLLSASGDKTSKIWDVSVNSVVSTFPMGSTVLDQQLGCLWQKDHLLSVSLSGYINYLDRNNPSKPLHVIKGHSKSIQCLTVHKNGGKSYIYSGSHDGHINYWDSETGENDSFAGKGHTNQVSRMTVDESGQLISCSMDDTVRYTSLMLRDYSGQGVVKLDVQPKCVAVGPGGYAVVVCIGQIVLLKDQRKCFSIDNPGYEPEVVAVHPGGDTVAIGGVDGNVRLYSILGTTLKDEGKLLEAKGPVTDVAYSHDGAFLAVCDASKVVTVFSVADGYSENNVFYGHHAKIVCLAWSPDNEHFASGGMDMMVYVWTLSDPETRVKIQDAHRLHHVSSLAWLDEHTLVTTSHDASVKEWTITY

Columns and labels:
Assay in all cases: log2 fold change, soluble protein after heating vs DMSO (PISA); higher = thermal stabilisation; K562 cells, 10 uM, 30 min; active = over 0.2 and 3.5 SD of the protein, either way, in both replicates (recomputed)
[1] = compound: C#Cc1cccc(Nc2ncnc3cc(OCCOC)c(OCCOC)cc23)c1 [erlotinib]
Method in brief: (§1)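 Quantification of soluble protein used TMTpro 16plex LC-MS/MS, with channel sums equalised. Samples were the supernatant after 21,000xg for 90 min of pooled aliquots from K562 cells (2×10^6 cells/mL) treated with 10 μM compound for 30 min, heated for 3 min over 48°C-58°C, and extracted in PBS with 0.5% NP-40 at 4°C. Values, from duplicates, describe thermal stability against control samples on a log2 fold-change scale.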

[2] = compound: C/C(=N\NC(=O)C1=CC(=CC=C1)S(=O)(=O)N2CCOCC2)/C3=C(C=CC(=C3)Cl)O
Method in brief: as §1

[3] = compound: C1=CC(=C(C=C1Cl)C2=NC3=NC=CN=C3C(=N2)NC4=CC=NC=C4)F
Method in brief: as §1

[4] = compound: C1=CC(=CC=C1C2=NC3=C(N2)C=C(C=C3)C(=O)N)OC4=CC=C(C=C4)Cl
Method in brief: as §1

[5] = compound: C1=CC2=C(C=CC(=C2)/C=C\3/C(=O)NC(=NCC4=CC=CS4)S3)N=C1
Method in brief: as §1

[6] = compound: C1=CC2=NC=CN=C2C=C1/C=C/3\C(=O)NC(=O)S3
Method in brief: as §1

[7] = compound: C1=CC=C(C=C1)C2=NC(=C(N2)C3=CC=NC=C3)C4=CC(=C(C=C4)Cl)O
Method in brief: as §1

[8] = compound: C1=CC=C2C(=C1)C3=NNC4=CC=CC(=C43)C2=O
Method in brief: as §1

[9] = compound: C1CCN(C1)C(=O)NC2=CC=CC(=C2)NC3=NC=C(C(=N3)NCCC4=CN=CN4)Br
Method in brief: as §1

[10] = compound: C1CN(CCC1(CC2=CC=C(C=C2)Cl)N)C3=NC=NC4=C3C=CN4
Method in brief: as §1

Measured: log2 fold change

VRK1 (UniProt Q99986)
inactive: [1] 0.087 | [2] -0.055 | [3] 0.119 | [4] -0.016 | [5] 0.038 | [6] -0.024 | [7] -0.039 | [8] 0.078 | [9] -0.044 | [10] -0.045

WIPF3 (UniProt A6NGB9)
inactive: [1] 0.036 | [2] -0.076 | [3] -0.041 | [4] -0.05 | [5] 0.005 | [6] 0.014 | [7] -0.067 | [8] -0.024 | [9] -0.033 | [10] 0.025

WDR46 (UniProt O15213)
inactive: [1] -0.209 | [2] -0.231 | [4] 0.008 | [5] -0.154 | [6] 0.065 | [7] -0.055 | [8] 0.052 | [9] 0.057 | [10] -0.087
active: [3] -0.816

WDR6 (UniProt Q9NNW5)
inactive: [1] 0.008 | [2] 0.042 | [3] -0.058 | [4] 0.043 | [5] -0.036 | [6] -0.02 | [7] -0.032 | [8] -0.01 | [9] 0.014 | [10] -0.01

VPS28 (UniProt Q9UK41)
inactive: [1] -0.072 | [2] 0.031 | [3] 0.27 | [4] -0.011 | [5] 0.009 | [6] 0.023 | [7] 0.009 | [8] 0.001 | [9] -0.091 | [10] -0.043

VDAC3 (UniProt Q9Y277)
inactive: [1] -0.006 | [2] 0.014 | [3] 0.043 | [4] -0.003 | [5] 0.042 | [6] 0.033 | [7] -0.036 | [8] 0.01 | [9] 0.019 | [10] 0.062

WASF2 (UniProt Q9Y6W5)
inactive: [1] -0.017 | [2] 0.019 | [3] -0.109 | [4] 0.013 | [5] -0.013 | [6] 0.016 | [7] -0.043 | [8] -0.054 | [9] 0.031 | [10] 0.036

WDR5 (UniProt P61964)
inactive: [1] -0.096 | [2] -0.056 | [3] -0.246 | [4] 0.087 | [5] -0.056 | [6] 0.02 | [7] -0.032 | [8] 0.015 | [9] 0.011 | [10] -0.028

WRAP53 (UniProt Q9BUR4)
inactive: [1] -0.082 | [2] -0.022 | [3] -0.028 | [4] 0.023 | [5] 0.037 | [6] 0.005 | [7] 0.007 | [8] -0.062 | [9] 0.099 | [10] -0.043

VGLL4 isoform 4 (UniProt Q14135)
inactive: [1] 0.045 | [2] -0.03 | [3] -0.008 | [4] 0.028 | [5] -0.092 | [6] 0.065 | [7] -0.086 | [8] 0.063 | [9] 0.091 | [10] -0.088

VPS45 (UniProt Q9NRW7)
inactive: [1] 0.038 | [2] 0.079 | [3] 0.024 | [4] -0.012 | [5] 0.052 | [6] -0.039 | [7] 0.002 | [8] 0.025 | [9] 0.046 | [10] -0.012

VDAC2 (UniProt P45880)
inactive: [1] -0.03 | [2] -0.004 | [3] 0.034 | [4] 0.006 | [5] 0.017 | [6] -0.013 | [7] -0.019 | [8] -0.016 | [9] 0.018 | [10] 0.065

VPS13B (UniProt Q7Z7G8)
inactive: [1] 0.032 | [2] 0.024 | [3] 0.028 | [4] 0.009 | [5] 0.048 | [6] -0.025 | [7] 0.032 | [8] -0.017 | [9] -0.052 | [10] 0.058

WASL (UniProt O00401)
inactive: [1] 0.094 | [2] 0.109 | [3] -0.082 | [4] 0.002 | [5] -0.005 | [6] -0.034 | [7] 0.072 | [8] 0 | [9] -0.042 | [10] -0.036

WEE1 (UniProt P30291)
inactive: [1] 0.029 | [2] -0.06 | [3] -0.081 | [4] 0.047 | [5] -0.206 | [6] 0.249 | [7] -0.177 | [8] 0.037 | [9] -0.085 | [10] -0.239

WDR20 isoform 7 (UniProt Q8TBZ3)
inactive: [1] 0.014 | [2] 0.019 | [3] -0.044 | [4] 0.068 | [5] 0.05 | [6] 0.194 | [7] 0.012 | [8] -0.152 | [9] -0.038 | [10] 0.015

WARS2 (UniProt Q9UGM6)
inactive: [1] 0.069 | [2] -0.016 | [3] 0.034 | [4] -0.094 | [5] 0.033 | [6] 0.006 | [7] -0.032 | [8] 0.031 | [9] 0.027 | [10] -0.027

VPS52 (UniProt Q8N1B4)
inactive: [1] 0.019 | [2] 0.048 | [3] -0.029 | [4] 0.067 | [5] 0.032 | [6] 0.031 | [7] 0.004 | [8] 0.079 | [9] -0.033 | [10] -0.051

WDR37 isoform 2 (UniProt Q9Y2I8)
inactive: [1] 0.039 | [2] 0.006 | [3] -0.097 | [4] 0.012 | [5] -0.026 | [6] -0.204 | [7] 0.006 | [8] -0.144 | [9] 0.01 | [10] -0.088

VWA3B isoform 6 (UniProt Q502W6)
inactive: [1] 0.107 | [2] -0.036 | [3] 0.213 | [4] -0.057 | [5] 0.048 | [6] 0.111 | [7] -0.214 | [8] -0.049 | [9] 0.03 | [10] -0.03

VPS37A (UniProt Q8NEZ2)
inactive: [1] 0.127 | [2] 0.113 | [3] -0.042 | [4] -0.097 | [5] -0.054 | [6] 0.059 | [7] 0.098 | [8] 0.044 | [9] 0.036 | [10] 0.008

WDR11 (UniProt Q9BZH6)
inactive: [1] 0.103 | [2] -0.081 | [3] 0.145 | [4] -0.004 | [5] 0.115 | [6] 0.067 | [7] -0.168 | [8] 0.005 | [9] 0.091 | [10] 0.023

WDR43 (UniProt Q15061)
inactive: [1] 0.001 | [2] -0.003 | [3] 0.008 | [4] -0.001 | [5] -0.028 | [6] 0.015 | [7] -0.008 | [8] 0.017 | [9] -0.013 | [10] 0.042

WAPL isoform 3 (UniProt Q7Z5K2)
inactive: [1] 0.031 | [2] 0.017 | [3] 0.048 | [4] -0.037 | [5] 0.057 | [6] 0.144 | [7] 0.059 | [8] -0.012 | [9] -0.217 | [10] -0.062

VPS35 (UniProt Q96QK1)
inactive: [1] -0.004 | [2] 0.025 | [3] 0.103 | [4] 0.013 | [5] 0.009 | [6] 0.014 | [7] 0.042 | [8] 0.01 | [9] 0.021 | [10] 0.058

2 records drawn at random from the list so far:
WDR43 (UniProt Q15061)
inactive: [1] 0.001 | [2] -0.003 | [3] 0.008 | [4] -0.001 | [5] -0.028 | [6] 0.015 | [7] -0.008 | [8] 0.017 | [9] -0.013 | [10] 0.042

VPS37A (UniProt Q8NEZ2)
inactive: [1] 0.127 | [2] 0.113 | [3] -0.042 | [4] -0.097 | [5] -0.054 | [6] 0.059 | [7] 0.098 | [8] 0.044 | [9] 0.036 | [10] 0.008

Going on with the list:

VTA1 (UniProt Q9NP79)
inactive: [1] -0.05 | [2] 0.124 | [3] 0.07 | [4] 0.018 | [5] -0.007 | [6] 0.025 | [7] -0.02 | [8] 0.029 | [9] 0.01 | [10] -0.024

VPS13A (UniProt Q96RL7)
inactive: [1] 0.025 | [2] 0.014 | [3] 0.034 | [4] 0.028 | [5] 0.055 | [6] 0.022 | [7] 0.023 | [8] -0.019 | [9] -0.032 | [10] 0.051

VPS26C (UniProt O14972)
inactive: [1] -0.05 | [2] 0.098 | [3] 0.025 | [4] 0.018 | [5] 0.018 | [6] 0.011 | [7] -0.069 | [8] 0.008 | [9] -0.099 | [10] 0.078

WDR1 (UniProt O75083)
inactive: [1] -0.019 | [2] 0.077 | [3] 0.071 | [4] 0.023 | [5] 0.062 | [6] -0.015 | [7] 0.054 | [8] 0.007 | [9] 0.015 | [10] -0.007

VRK3 (UniProt Q8IV63)
inactive: [1] 0.048 | [2] 0.033 | [3] 0.019 | [4] -0.089 | [5] -0.068 | [6] -0.093 | [7] 0.162 | [8] -0.026 | [9] -0.179 | [10] 0.123
